The results in this text go back to the supplement of paper PMC12819154, “High-throughput peptide-centric local stability assay extends protein–ligand identification to membrane proteins, tissues and bacteria” (Nature Structural & Molecular Biology, 2025).

The chains behind the UniProt entries cited, without tags or fusion partners. Where a name states a change or a piece, a line headed by the entry shows the natural chain unless it says otherwise.
UniProt Q8BVF7, whole entry: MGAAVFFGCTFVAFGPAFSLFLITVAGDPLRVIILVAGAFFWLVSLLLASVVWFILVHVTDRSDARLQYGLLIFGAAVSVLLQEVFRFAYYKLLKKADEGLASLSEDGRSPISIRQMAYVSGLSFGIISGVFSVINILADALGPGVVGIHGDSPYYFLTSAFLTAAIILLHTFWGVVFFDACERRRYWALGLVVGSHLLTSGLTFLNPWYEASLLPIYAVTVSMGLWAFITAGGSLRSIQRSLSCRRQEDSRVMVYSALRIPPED
UniProt Q8BW75, whole entry: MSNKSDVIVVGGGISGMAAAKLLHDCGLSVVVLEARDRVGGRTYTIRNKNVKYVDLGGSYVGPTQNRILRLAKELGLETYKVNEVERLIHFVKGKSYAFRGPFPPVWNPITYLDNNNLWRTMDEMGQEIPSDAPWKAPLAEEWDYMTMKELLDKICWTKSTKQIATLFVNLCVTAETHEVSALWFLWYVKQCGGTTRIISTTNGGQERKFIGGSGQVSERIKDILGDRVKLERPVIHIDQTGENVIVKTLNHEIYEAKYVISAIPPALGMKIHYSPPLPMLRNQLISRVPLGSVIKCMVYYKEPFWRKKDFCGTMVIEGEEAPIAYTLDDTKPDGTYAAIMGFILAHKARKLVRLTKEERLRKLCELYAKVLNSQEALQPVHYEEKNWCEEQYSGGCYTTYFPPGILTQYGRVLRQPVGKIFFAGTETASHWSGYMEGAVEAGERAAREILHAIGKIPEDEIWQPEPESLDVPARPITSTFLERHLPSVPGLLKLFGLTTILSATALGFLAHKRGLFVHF
UniProt Q8C6B9: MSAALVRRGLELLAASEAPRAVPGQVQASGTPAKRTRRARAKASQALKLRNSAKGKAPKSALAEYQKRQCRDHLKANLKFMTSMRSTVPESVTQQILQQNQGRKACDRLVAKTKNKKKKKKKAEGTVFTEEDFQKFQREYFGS
UniProt Q8C5W0: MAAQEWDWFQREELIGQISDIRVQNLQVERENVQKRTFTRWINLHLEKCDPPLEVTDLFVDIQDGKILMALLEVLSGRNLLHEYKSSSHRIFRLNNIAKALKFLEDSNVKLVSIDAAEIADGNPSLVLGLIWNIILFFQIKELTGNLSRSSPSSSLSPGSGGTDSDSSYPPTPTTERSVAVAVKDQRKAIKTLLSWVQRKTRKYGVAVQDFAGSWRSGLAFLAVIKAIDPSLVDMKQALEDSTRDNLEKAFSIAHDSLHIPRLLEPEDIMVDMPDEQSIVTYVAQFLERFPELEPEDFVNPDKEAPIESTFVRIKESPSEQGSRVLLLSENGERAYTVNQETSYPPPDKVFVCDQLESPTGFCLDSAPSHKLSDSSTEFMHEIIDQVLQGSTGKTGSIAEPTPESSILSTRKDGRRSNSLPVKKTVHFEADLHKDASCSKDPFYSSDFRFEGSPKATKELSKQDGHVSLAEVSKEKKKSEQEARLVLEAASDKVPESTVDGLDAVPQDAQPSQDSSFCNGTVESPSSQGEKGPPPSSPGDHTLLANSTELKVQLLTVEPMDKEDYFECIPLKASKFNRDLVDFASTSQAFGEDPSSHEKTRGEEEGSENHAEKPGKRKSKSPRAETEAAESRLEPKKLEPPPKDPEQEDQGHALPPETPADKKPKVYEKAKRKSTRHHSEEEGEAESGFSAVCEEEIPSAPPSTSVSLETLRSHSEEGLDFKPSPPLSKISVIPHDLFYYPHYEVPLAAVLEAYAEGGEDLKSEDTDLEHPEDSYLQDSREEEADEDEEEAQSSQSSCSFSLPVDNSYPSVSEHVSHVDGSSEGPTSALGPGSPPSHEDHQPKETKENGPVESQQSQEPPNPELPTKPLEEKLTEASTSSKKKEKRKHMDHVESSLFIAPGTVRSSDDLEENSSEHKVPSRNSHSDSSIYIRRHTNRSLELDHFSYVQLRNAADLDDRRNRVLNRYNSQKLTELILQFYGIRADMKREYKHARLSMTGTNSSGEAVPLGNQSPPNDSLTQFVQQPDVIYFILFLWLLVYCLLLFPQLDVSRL
UniProt Q8C0V9: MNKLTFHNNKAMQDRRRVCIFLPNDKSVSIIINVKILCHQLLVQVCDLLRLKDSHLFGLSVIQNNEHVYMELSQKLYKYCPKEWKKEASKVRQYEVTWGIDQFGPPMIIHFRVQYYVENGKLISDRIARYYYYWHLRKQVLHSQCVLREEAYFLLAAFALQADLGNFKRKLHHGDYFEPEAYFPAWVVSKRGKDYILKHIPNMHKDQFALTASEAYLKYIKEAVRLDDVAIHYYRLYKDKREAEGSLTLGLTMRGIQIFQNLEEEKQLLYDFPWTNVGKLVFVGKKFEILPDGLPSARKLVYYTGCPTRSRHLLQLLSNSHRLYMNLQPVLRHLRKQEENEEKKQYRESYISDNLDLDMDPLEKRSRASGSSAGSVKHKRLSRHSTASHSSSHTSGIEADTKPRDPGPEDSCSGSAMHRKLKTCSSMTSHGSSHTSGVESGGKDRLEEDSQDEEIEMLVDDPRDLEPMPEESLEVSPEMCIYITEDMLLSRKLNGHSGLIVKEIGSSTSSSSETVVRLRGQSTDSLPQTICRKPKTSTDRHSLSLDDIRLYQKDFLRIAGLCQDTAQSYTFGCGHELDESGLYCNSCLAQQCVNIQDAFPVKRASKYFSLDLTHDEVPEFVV

Some of the results follow. Small differences around the control level are noise.

Compound in the experiment: CN[C@@H]1C[C@H]2O[C@@](C)([C@@H]1OC)n1c3ccccc3c3c4c(c5c6ccccc6n2c5c31)C(=O)NC4 [staurosporine]
The experiment is described as follows: log2 fold change of tryptic peptide abundance, ligand vs vehicle (limited proteolysis) (log2 ratio); higher = more trypsin-susceptible (destabilized). As to conditions: ligand concentration: 20 uM; sample: mouse liver crude lysate; replicate design: treated separately.
In the case of “UniProt Q8BVF7 (peptide sequence: VMVYSALR, peptide start residue: 253)”, the log2 fold change was -0.0196. As for “UniProt Q8BW75 (peptide sequence: NQLISRVPLGSVIK, peptide start residue: 283)”, the log2 fold change is -0.621. With “UniProt Q8C6B9 (peptide sequence: RGLELLAASEAPR, peptide start residue: 8)”, the log2 fold change was -0.136.

For the target “UniProt Q8C5W0 (peptide sequence: RSNSLPVKK, peptide start residue: 416)”, the log2 fold change was -0.412.

On to “UniProt Q8C0V9 (peptide sequence: HLLQLLSNSHR, peptide start residue: 312)”, for which the log2 fold change came to 0.106.
